Results are given in words; binding and its absence hold for the method and conditions named. Binding seen in cells or lysates may run through a third protein. A yes stands for co-enrichment or nearness to the bait. Other partners may have been found. For some assays here: A no says only that the protein was not detected with the bait.
T1: methionyl-tRNA synthetase (human (endogenous in HEK 293T)), P56192
T1 chain: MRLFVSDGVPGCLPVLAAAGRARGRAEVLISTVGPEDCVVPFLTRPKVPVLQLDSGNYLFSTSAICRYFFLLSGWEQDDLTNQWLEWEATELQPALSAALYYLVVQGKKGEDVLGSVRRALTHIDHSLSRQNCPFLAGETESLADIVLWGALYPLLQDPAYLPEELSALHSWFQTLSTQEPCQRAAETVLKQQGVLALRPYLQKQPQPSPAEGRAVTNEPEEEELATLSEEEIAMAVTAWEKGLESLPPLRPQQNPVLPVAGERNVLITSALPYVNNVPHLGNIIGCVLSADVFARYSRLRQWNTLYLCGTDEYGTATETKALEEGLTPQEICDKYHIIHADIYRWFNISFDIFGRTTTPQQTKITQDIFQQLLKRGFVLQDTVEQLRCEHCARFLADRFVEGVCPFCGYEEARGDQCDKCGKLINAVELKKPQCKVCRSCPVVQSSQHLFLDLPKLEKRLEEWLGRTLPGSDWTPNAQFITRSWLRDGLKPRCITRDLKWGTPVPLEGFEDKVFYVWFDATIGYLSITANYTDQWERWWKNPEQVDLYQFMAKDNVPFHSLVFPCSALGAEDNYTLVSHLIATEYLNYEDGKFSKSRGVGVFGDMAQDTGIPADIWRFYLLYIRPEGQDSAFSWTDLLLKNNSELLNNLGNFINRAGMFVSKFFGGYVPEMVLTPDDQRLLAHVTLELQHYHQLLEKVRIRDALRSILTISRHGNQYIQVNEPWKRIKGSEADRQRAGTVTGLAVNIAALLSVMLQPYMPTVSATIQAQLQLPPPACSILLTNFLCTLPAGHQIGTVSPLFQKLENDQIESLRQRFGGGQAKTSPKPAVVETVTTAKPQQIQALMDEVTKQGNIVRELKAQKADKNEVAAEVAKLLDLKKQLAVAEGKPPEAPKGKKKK

T2: methionyl-tRNA synthetase (human (endogenous in HEK 293T)) (UniProt P56192)
T2 sequence: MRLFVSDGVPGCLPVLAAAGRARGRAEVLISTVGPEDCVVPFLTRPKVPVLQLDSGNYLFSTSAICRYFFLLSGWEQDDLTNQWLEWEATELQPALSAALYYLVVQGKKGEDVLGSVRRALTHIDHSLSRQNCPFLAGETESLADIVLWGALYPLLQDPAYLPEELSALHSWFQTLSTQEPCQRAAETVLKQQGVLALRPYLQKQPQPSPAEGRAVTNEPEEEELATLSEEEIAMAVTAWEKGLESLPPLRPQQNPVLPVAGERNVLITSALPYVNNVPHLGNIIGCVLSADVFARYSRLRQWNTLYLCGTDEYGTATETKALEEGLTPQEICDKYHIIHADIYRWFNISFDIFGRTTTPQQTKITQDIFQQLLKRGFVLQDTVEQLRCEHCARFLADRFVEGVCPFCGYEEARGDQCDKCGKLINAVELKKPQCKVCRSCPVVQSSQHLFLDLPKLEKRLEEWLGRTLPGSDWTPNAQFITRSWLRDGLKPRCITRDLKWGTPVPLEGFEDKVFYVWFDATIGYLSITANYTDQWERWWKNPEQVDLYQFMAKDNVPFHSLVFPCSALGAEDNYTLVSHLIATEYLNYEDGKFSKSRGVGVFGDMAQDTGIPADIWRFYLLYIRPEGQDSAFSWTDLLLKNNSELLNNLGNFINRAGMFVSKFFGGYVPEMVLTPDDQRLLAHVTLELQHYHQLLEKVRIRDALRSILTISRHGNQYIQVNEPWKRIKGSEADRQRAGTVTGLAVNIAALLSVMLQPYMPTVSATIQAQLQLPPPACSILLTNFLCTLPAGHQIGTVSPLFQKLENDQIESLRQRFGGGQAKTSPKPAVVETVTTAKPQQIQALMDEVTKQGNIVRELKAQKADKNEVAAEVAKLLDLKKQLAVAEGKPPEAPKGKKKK


Legend:
[1] = molecular target: T1, methionyl-tRNA synthetase (human …); assay: affinity purification with mass spectrometry; anti-MetRS antibody on Protein A/G agarose beads, lysate of wildtype HEK 293T cells in TBS with 1% IGEPAL CA-630, 3 h; on-bead trypsin digest, label-free quantification, 3 repeats; details: remark: other sources report otherwise
[2] = molecular target: T2, methionyl-tRNA synthetase (human (endogenous in HEK 293T)); assay: affinity purification with mass spectrometry; as a1, but lysate of HEK 293T ΔLZ cells, which make only ArgRS without the leucine zipper

binding [1]	binding [2]	Binder
binds	–	arginyl-tRNA synthetase, full-length, P54136 1-660 (enzyme) MDVLVSECSARLLQQEEEIKSLTAEIDRLKNCGCLGASPNLEQLQEENLKLKYRLNILRKSLQAERNKPTKNMINIISRLQEVFGHAIKAAYPDLENPPLLVTPSQQAKFGDYQCNSAMGISQMLKTKEQKVNPREIAENITKHLPDNECIEKVEIAGPGFINVHLRKDFVSEQLTSLLVNGVQLPALGENKKVIVDFSSPNIAKEMHVGHLRSTIIGESISRLFEFAGYDVLRLNHVGDWGTQFGMLIAHLQDKFPDYLTVSPPIGDLQVFYKESKKRFDTEEEFKKRAYQCVVLLQGKNPDITKAWKLICDVSRQELNKIYDALDVSLIERGESFYQDRMNDIVKEFEDRGFVQVDDGRKIVFVPGCSIPLTIVKSDGGYTYDTSDLAAIKQRLFEEKADMIIYVVDNGQSVHFQTIFAAAQMIGWYDPKVTRVFHAGFGVVLGEDKKKFKTRSGETVRLMDLLGEGLKRSMDKLKEKERDKVLTAEELNAAQTSVAYGCIKYADLSHNRLNDYIFSFDKMLDDRGNTAAYLLYAFTRIRSIARLANIDEEMLQKAARETKILLDHEKEWKLGRCILRFPEILQKILDDLFLHTLCDYIYELATAFTEFYDSCYCVEKDRQTGKILKVNMWRMLLCEAVAAVMAKGFDILGIKPVQRM
–	no binding	ΔLZ ArgRS (arginyl-tRNA synthetase lacking the N-terminal leucine zipper) (enzyme, UniProt P54136 73-660) MINIISRLQEVFGHAIKAAYPDLENPPLLVTPSQQAKFGDYQCNSAMGISQMLKTKEQKVNPREIAENITKHLPDNECIEKVEIAGPGFINVHLRKDFVSEQLTSLLVNGVQLPALGENKKVIVDFSSPNIAKEMHVGHLRSTIIGESISRLFEFAGYDVLRLNHVGDWGTQFGMLIAHLQDKFPDYLTVSPPIGDLQVFYKESKKRFDTEEEFKKRAYQCVVLLQGKNPDITKAWKLICDVSRQELNKIYDALDVSLIERGESFYQDRMNDIVKEFEDRGFVQVDDGRKIVFVPGCSIPLTIVKSDGGYTYDTSDLAAIKQRLFEEKADMIIYVVDNGQSVHFQTIFAAAQMIGWYDPKVTRVFHAGFGVVLGEDKKKFKTRSGETVRLMDLLGEGLKRSMDKLKEKERDKVLTAEELNAAQTSVAYGCIKYADLSHNRLNDYIFSFDKMLDDRGNTAAYLLYAFTRIRSIARLANIDEEMLQKAARETKILLDHEKEWKLGRCILRFPEILQKILDDLFLHTLCDYIYELATAFTEFYDSCYCVEKDRQTGKILKVNMWRMLLCEAVAAVMAKGFDILGIKPVQRM

Reference: article PMC8053116
